From the supplement of paper PMC3545927
The list shows a part of the results, in another mix than the full data.

Sequences of proteins named here, by UniProt entry; tags and fusion partners are left off.
furin, P09958, UniProt P09958, whole entry: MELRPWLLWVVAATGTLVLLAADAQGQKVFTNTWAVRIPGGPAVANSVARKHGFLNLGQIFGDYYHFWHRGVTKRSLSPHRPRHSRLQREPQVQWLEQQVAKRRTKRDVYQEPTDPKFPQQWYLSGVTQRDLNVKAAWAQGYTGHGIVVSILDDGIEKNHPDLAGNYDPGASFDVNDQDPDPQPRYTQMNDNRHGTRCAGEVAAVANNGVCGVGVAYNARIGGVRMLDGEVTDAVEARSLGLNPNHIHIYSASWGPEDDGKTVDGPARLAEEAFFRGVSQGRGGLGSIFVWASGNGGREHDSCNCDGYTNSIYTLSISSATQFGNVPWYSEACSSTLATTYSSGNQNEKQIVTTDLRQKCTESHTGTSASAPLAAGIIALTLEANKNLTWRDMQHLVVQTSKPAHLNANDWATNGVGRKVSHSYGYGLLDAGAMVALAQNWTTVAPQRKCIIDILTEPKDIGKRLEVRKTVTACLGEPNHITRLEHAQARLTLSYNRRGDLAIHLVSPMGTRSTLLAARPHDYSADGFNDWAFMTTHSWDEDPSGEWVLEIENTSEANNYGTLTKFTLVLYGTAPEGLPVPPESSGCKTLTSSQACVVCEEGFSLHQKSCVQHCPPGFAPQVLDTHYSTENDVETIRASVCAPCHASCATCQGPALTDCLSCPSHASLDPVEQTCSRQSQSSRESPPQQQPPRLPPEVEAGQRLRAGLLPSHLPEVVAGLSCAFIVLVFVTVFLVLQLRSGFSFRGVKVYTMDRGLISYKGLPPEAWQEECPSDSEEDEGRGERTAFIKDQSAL

Target: furin, P09958
Test: furin cleavage Z-score vs untreated control; higher = more cleavage, active = 3.5 or more, inactive = 1 or less, 8 variable residues between constant flanks
Procedure, shortened: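 Reactions of 0.01 ml ran for 7.5, 15 or 30 min in 50 mM HEPES pH 7.5 with CaCl2 and NaCl, at 1:10 enzyme:substrate. In them, purified furin acted on bead-held 8-mer peptides fused to a cDNA oligonucleotide. The cleavage Z-score was obtained by lowess-adjusting log sequencing counts of released DNA against furin-free reactions and scaling by median absolute deviation.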

| Sequence | furin cleavage Z-score (7.5 min) | furin cleavage Z-score (15 min) | furin cleavage Z-score (30 min) |
| --- | --- | --- | --- |
| CACTRGVAKAAGNASASA [HC753] | inactive: -1.87 | inactive: -0.584 | inactive: -0.853 |
| CARVKRGWVWAGNASASA [FS-2101] |  | active: 4.37 | active: 8.77 |
| CARIKRSAPLAGNASASA [FS-2954] | active: 11.4 | active: 11.4 | active: 10.2 |
| CAVVCCSKSYAGNASASA [HC2054] | 1.39 | 1.52 | 1.41 |
| CARPSRPPRGAGNASASA [FS-1564] | 1.46 | 2.69 | 2.63 |
| CAGSYRCVRDAGNASASA [FS-1004] | 1.73 | 1.33 | 2.08 |
| CAYVGGPLTNAGNASASA [HC1501] | inactive: -0.238 | inactive: -0.463 | inactive: -0.523 |
| CAPEARLRRVAGNASASA [FS-839] | inactive: 0.0356 | 3.09 | 2.39 |
| CARKKRKDAKAGNASASA [FS-3221] | 1.6 | 2.26 | 2.33 |
| CAKNYREQRSAGNASASA [FS-1636] | 3.03 | 2.4 | 3.3 |
| CARVMRWNSKAGNASASA [FS-3120] | inactive: -0.31 | inactive: 0.804 | 2.88 |
| CARIPRSREVAGNASASA [FS-2151] | 1.64 | 3.44 | 3.3 |
| CAHHCRLRRSAGNASASA [FS-1592] | 1.96 | 1.5 | 1.02 |
| CARQRREKGAAGNASASA [FS-1833] | 2.19 | 3.12 | 2.96 |
| CAVKKRSVSEAGNASASA [FS-3139] | 1.35 | 1.15 | 1.17 |
| CACGARLRRSAGNASASA [FS-13] | 2.59 | 1.09 | 1.82 |
| CARQRRQERRAGNASASA [FS-2293] | 1.02 | 1.7 | 2.99 |
| CAVKARIKRMAGNASASA [FS-310] | active: 8.88 | active: 10.6 | active: 7.99 |
| CALKGRPARFAGNASASA [FS-1135] | 1.12 | active: 3.63 | active: 3.8 |

Looked up above.
Entry of CARVKRGWVWAGNASASA [FS-2101] under furin cleavage Z-score (30 min): active: 8.77
Entry of CARQRRQERRAGNASASA [FS-2293] under furin cleavage Z-score (15 min): 1.7
Entry of CAGSYRCVRDAGNASASA [FS-1004] under furin cleavage Z-score (7.5 min): 1.73

Going on with the list:

| Sequence | furin cleavage Z-score (7.5 min) | furin cleavage Z-score (15 min) | furin cleavage Z-score (30 min) |
| --- | --- | --- | --- |
| CAANHVVKRDAGNASASA [FS-642] | active: 8.87 | active: 11.8 | active: 8.5 |
| CAQAWRVRRLAGNASASA [FS-1388] | 1.31 | 1.87 | 2.52 |
| CARLCRKRRCAGNASASA [FS-1478] | active: 5.9 | active: 6.48 | active: 7.28 |
| CAEAACNWTRAGNASASA [HC481] | 1.17 | 3.42 | 1.92 |
| CARDWRERRNAGNASASA [FS-1394] | 2.79 | 1.81 | 2.07 |
| CAKPARKYRFAGNASASA [FS-812] | 2.11 | 2.57 | 2.1 |
| CAERVTSTWVAGNASASA [HC2173] | inactive: -0.173 | inactive: -0.632 | inactive: -2.09 |
| CARSRRAYLAAGNASASA [FS-3093] | 1.52 | 2.71 | 3.05 |
| CAGAGRVKRGAGNASASA [FS-778] | 1.42 | 1.55 | 1.16 |
| CARWRRTKGAAGNASASA [FS-1873] | inactive: -0.133 | inactive: -1.53 | inactive: -0.0248 |
| CARYYRDAAGAGNASASA [FS-1812] | 2.19 | 3.06 | 1.79 |
| CARRNRSTSTAGNASASA [FS-2072] | active: 4.22 | active: 6.96 | active: 4.29 |
| CAPHTRLRRSAGNASASA [FS-1382] | 2.35 | 2.68 | 2.05 |
| CARMKRKIERAGNASASA [FS-2495] | 2.72 | 2.2 | 3.48 |
| CARKIRTVGNAGNASASA [FS-1726] | active: 5.44 | active: 7.79 | active: 7.77 |
| CAEVPCHRFSAGNASASA [HC2387] | 1.19 | 1.4 | 1.45 |
| CARQKRSSEAAGNASASA [FS-3037] | active: 9.89 | active: 9.51 | active: 6.34 |
| CAVVCCTMSYAGNASASA [HC116] | 2.31 | 2.04 | 1.7 |
